Experimental findings from PubChem BioAssay AID342 (DTP/NCI, 2004) are described below.

The list shows only some results of the screen, not a fair sample: it gathers tests that were run many times, whatever their T/C, doses with no T/C, and many T/C values between a quarter and a half above the control. Other doses and runs of a compound stand elsewhere. T/C: endpoint of the treated group in % of that of the vehicle group. Schedules are NCI's codes, taken here to give the interval after Q, in days (D) or hours (H), and the number of doses after X. Some T/C values are followed by the survivors on the day toxicity was checked, most often the fifth; where none is given, no animal had died by that day. Some entries give survivors of the animals treated and no T/C: the source files T/C as zero there, which appears to mark a toxic dose or a test without result, not a measured value. Counts of survivors are from the toxicity check (mostly the fifth day) where no day follows; animals may have died later. Some doses were run more than once; their values stand side by side, smallest first. Some schedules carry Z or #; the key to these is not given.

The test system of this test is Swiss mice, Sarcoma 180 sc, mean tumor weight T/C. Kind of test: NCI In Vivo Anticancer Drug Screen. Data for tumor model Sarcoma 180 (subcutaneous) in Swiss mice. Conditions: T/C endpoint: mean tumor weight, higher T/C = larger tumour; for T/C: evaluated on day 8. The gist of the method: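 Transplantable tumors were established in mice, compound was given, then survival or tumor size was recorded. The treated value was divided by the vehicle-control value.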

Setting [1] is: dose: 500.0 mg/kg/injection, schedule: Q01DX007 (ip), vehicle: saline.
Setting [2] is: dose: 125.0 mg/kg/injection, schedule: Q01DX007 (ip), vehicle: carboxymethylcellulose (CMC).
The mark [3] stands for this setting: dose: 500.0 mg/kg/injection, schedule: Q01DX007 (ip), vehicle: carboxymethylcellulose (CMC).
The mark [4] stands for this setting: dose: 150.0 mg/kg/injection, schedule: Q01DX007 (ip), vehicle: carboxymethylcellulose (CMC).

With `C=CCSc1ncnc2c1ncn2C1OC(CO)C(O)C1O` (stereo unspecified), the survivor count reads like this: (dose: 200.0 mg/kg/injection, schedule: Q01DX007 (ip), vehicle: saline) 3 of 6; (dose: 300.0 mg/kg/injection, schedule: Q01DX007 (ip), vehicle: saline) 3 of 6; (dose: 400.0 mg/kg/injection, schedule: Q01DX007 (ip), vehicle: saline) 0 of 6.

As for `CN(C)/N=N/c1nc[nH]c1C(N)=O`, the survivor count is, setting by setting: under setting [1], 1 of 6; (dose: 1280.0 mg/kg/injection, schedule: Q01DX007 (ip), vehicle: carboxymethylcellulose (CMC)) 3 of 6.

For the compound `COC(=O)[C@H]1[C@H]2C[C@@H]3c4[nH]c5cc(OC)ccc5c4CCN3C[C@H]2C[C@@H](OC(=O)c2cc(OC)c(OC)c(OC)c2)[C@@H]1OC`, the survivor count is on record as 1 of 6 (dose: 4.0 mg/kg/injection, schedule: Q01DX007 (ip), vehicle: carboxymethylcellulose (CMC)) and 2 of 7 (dose: 5.1 mg/kg/injection, schedule: Q01DX007 (ip), vehicle: carboxymethylcellulose (CMC)).

With `ClCc1c2ccccc2c(CCl)c2ccccc12`, the survivor count was 1 of 6 (dose: 6.0 mg/kg/injection, schedule: Q01DX007 (ip), vehicle: methylcellulose (MC)) and 3 of 7 (dose: 13.5 mg/kg/injection, schedule: Q01DX007 (ip), vehicle: saline).

With `CN1CCc2cc3c(cc2C(=O)Cc2ccc4c(c2C1)OCO4)OCO3`, the survivor count under setting [2] is given as 1 of 6; the survivor count (dose: 250.0 mg/kg/injection, schedule: Q01DX007 (ip), vehicle: carboxymethylcellulose (CMC)) is 0 of 6; the survivor count under setting [3] was 0 of 6.

`C[C@H]1/C(=C/C(=O)OCCN(C)C)CC[C@H]2[C@H]1C(=O)C[C@H]1C(C)(C)[C@@H](O)CC[C@]21C`: the survivor count is given as 0 of 6 (dose: 30.0 mg/kg/injection, schedule: Q01DX007 (ip), vehicle: saline); 0 of 6 (dose: 60.0 mg/kg/injection, schedule: Q01DX007 (ip), vehicle: saline); 0 of 6 (dose: 120.0 mg/kg/injection, schedule: Q01DX007 (ip), vehicle: saline).

Take `CCCCCN(C)/N=N/c1nc[nH]c1C(N)=O`: the survivor count reads like this: (dose: 100.0 mg/kg/injection, schedule: Q01DX007 (ip), vehicle: carboxymethylcellulose (CMC)) 3 of 6; under setting [4], 2 of 6 and 3 of 6.

In the case of `COc1ccc2c3c([nH]c2c1)[C@H]1C[C@H]2[C@H](C[C@@H](O)[C@H](OC)[C@H]2CO)CN1CC3`, for the setting “dose: 4.0 mg/kg/injection, schedule: Q01DX007 (ip), vehicle: saline”, the T/C was 138 % of control.

On to `CCCCCC[C@@H](O)C/C=C\CCCCCCCC(=O)O`, for which, where the note is “dose: 250.0 mg/kg/injection, schedule: Q01DX007 (ip), vehicle: saline”, the survivor count was 0 of 6.

Turning to `COc1cc([C@@H]2c3cc4c(cc3[C@H](O)[C@H]3COC(=O)[C@H]23)OCO4)cc(OC)c1OC`, the T/C (dose: 0.22 mg/kg/injection, schedule: Q01DX007 (ip), vehicle: carboxymethylcellulose (CMC)) was 133 % of control [9 of 10 alive] and the T/C (dose: 700.0 micrograms/kg/injection, schedule: Q01DX007 (ip), vehicle: carboxymethylcellulose (CMC)) was 137 % of control. Also, the survivor count (dose: 1.8 mg/kg/injection, schedule: Q01DX007 (ip), vehicle: carboxymethylcellulose (CMC)) is given as 3 of 10.

As for `O=C(Nc1ccc(C2=NCCN2)cc1)c1cccc(C(=O)Nc2ccc(C3=NCCN3)cc2)c1`, the T/C runs as follows: (dose: 2.4 mg/kg/injection, schedule: Q01DX007 (ip), vehicle: carboxymethylcellulose (CMC)) 132 % of control; (dose: 30.0 mg/kg/injection, schedule: Q01DX007 (ip), vehicle: carboxymethylcellulose (CMC)) 127 % of control. The survivor count reads like this: (dose: 18.75 mg/kg/injection, schedule: Q01DX007 (ip), vehicle: carboxymethylcellulose (CMC)) 1 of 6; (dose: 37.5 mg/kg/injection, schedule: Q01DX007 (ip), vehicle: carboxymethylcellulose (CMC)) 3 of 6; (dose: 75.0 mg/kg/injection, schedule: Q01DX007 (ip), vehicle: carboxymethylcellulose (CMC)) 0 of 6; under setting [4], 0 of 6; (dose: 400.0 mg/kg/injection, schedule: Q01DX007 (ip), vehicle: water) 0 of 6; (dose: 480.0 mg/kg/injection, schedule: Q01DX007 (ip), vehicle: water) 0 of 6. Under “dose: 600.0 mg/kg/injection, schedule: Q01DX007 (ip), vehicle: water”, the survivor count is reported as 0 of 6.

Consider `O=C(CBr)c1ccc(Br)cc1`, for which, where the note is “dose: 30.0 mg/kg/injection, schedule: Q01DX007 (ip), vehicle: other”, the survivor count is 2 of 6.

Take `Oc1ccccc1C(Nc1nc2ccccc2s1)c1ccc2cccnc2c1O` (stereo unspecified): where the note is “dose: 500.0 mg/kg/injection, schedule: Q01DX007 (ip), vehicle: other”, the survivor count is on record as 0 of 6.

As to `CC1C[C@@H]2[C@H]([C@@H](O)C[C@@]3(C)[C@H]2CC[C@]3(O)C(=O)CF)[C@@]2(C)CCC(=O)C=C12` (stereo partly specified), the survivor count reads like this: (dose: 62.0 mg/kg/injection, schedule: Q#A X014 (sc), vehicle: steroid suspending solution) 3 of 6; (dose: 210.75 mg/kg/injection, schedule: Q#A X014 (sc), vehicle: steroid suspending solution) 1 of 5.

Regarding `CN1CCCC1c1cccnc1` (stereo unspecified), the T/C (dose: 2.0 mg/kg/injection, schedule: Q01DX007 (ip), vehicle: carboxymethylcellulose (CMC)) was 137 % of control. In addition, the survivor count (dose: 10.0 mg/kg/injection, schedule: Q01DX007 (ip), vehicle: carboxymethylcellulose (CMC)) is on record as 0 of 6; the survivor count (dose: 20.0 mg/kg/injection, schedule: Q01DX007 (ip), vehicle: carboxymethylcellulose (CMC)) is recorded as 0 of 6; the survivor count (dose: 40.0 mg/kg/injection, schedule: Q01DX007 (ip), vehicle: carboxymethylcellulose (CMC)) is 0 of 6.

As for `CC(=O)Nc1cc2c(cc1[N+](=O)[O-])-c1ccccc1C2O` (stereo unspecified), the survivor count is 1 of 6 (dose: 222.0 mg/kg/injection, schedule: Q01DX007 (ip), vehicle: saline) and 0 of 6 (dose: 750.0 mg/kg/injection, schedule: Q01DX007 (ip), vehicle: other).

For the compound `c1ccc2c(c1)-c1cccc3c1c-2cc1ccccc13`, the survivor count is 1 of 6 and 2 of 6 (dose: 55.0 mg/kg/injection, schedule: Q01DX007 (ip), vehicle: other); 2 of 6 (dose: 82.0 mg/kg/injection, schedule: Q01DX007 (ip), vehicle: other); 3 of 6 (dose: 82.5 mg/kg/injection, schedule: Q01DX007 (ip), vehicle: carboxymethylcellulose (CMC)); 0 of 6 under setting [2]; 2 of 6 (dose: 188.0 mg/kg/injection, schedule: Q01DX007 (ip), vehicle: carboxymethylcellulose (CMC)); 0 of 6 (dose: 188.0 mg/kg/injection, schedule: Q01DX007 (ip), vehicle: other).

Turning to `CNNCc1ccc(C(=O)NC(C)C)cc1`, the survivor count is 0 of 6 under setting [3]; 0 of 6 under setting [1]; 0 of 6 (dose: 750.0 mg/kg/injection, schedule: Q01DX007 (ip), vehicle: saline).

With `C[C@]12CC[C@H](O)C[C@H]1CC[C@@H]1[C@@H]2CC[C@]2(C)[C@@H](C3=CC(=O)OC3)CC[C@]12O`, the survivor count (dose: 50.0 mg/kg/injection, schedule: Q01DX007 (ip), vehicle: carboxymethylcellulose (CMC)) is given as 3 of 6.

In the case of `O=C1C=CC(=O)N1c1ccc2c(c1)C(Br)c1ccccc1-2` (stereo unspecified), where the note is “dose: 37.5 mg/kg/injection, schedule: Q#A X014 (ip), vehicle: methylcellulose (MC)”, the survivor count is 3 of 6.

Regarding `CCCCCCCCCCOP(N)(=O)OCCCCCCCCCC`, the survivor count by setting is: (dose: 62.5 mg/kg/injection, schedule: Q#A X014 (ip), vehicle: carboxymethylcellulose (CMC)) 1 of 6 and 3 of 6; (dose: 93.75 mg/kg/injection, schedule: Q#A X014 (ip), vehicle: carboxymethylcellulose (CMC)) 1 of 6.

As to `O=C1Cc2ccccc2C(=O)N1`, the survivor count is reported as 2 of 6 (dose: 60.0 mg/kg/injection, schedule: Q#A X014 (ip), vehicle: carboxymethylcellulose (CMC)) and 2 of 6 (dose: 120.0 mg/kg/injection, schedule: Q#A X014 (ip), vehicle: carboxymethylcellulose (CMC)).
